Laboratory results: paper PMC7819943, “Rice protein-binding microarrays: a tool to detect cis-acting elements near promoter regions in rice”
The list shows a part of the results.

The chains behind the UniProt entries cited, without tags or fusion partners.
UniProt Q0JBA9, entry or part of it: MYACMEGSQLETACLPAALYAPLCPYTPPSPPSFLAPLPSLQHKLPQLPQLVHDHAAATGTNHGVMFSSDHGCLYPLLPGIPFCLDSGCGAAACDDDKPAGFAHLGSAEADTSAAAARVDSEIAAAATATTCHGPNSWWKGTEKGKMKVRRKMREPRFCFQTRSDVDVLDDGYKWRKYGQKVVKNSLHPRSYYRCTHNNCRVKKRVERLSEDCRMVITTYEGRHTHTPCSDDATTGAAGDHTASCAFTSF

target: OsWRKY34 (Oryza sativa, UniProt Q0JBA9 1-250); test: protein-binding microarray (RPBM); PBS, 2% BSA, 51.3 ng/ul salmon testes DNA, 50 uM zinc acetate, 200 nM TF, 25 C, 1 h; high values mean tight binding; details: protein: recombinant; tags: N-terminal polyhistidine and DsRed monomer fusion (pET32a); label: CyDye5-dUTP incorporated in the synthesized complementary strand; 3' TTTTT single-stranded linker to array surface; dsDNA, one strand shown
In short: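 Ni–NTA purification followed expression in E. coli BL21-CodonPlus of transcription factors fused N-terminally to a polyhistidine tag and DsRed. At 200 nM in PBS with 2% BSA, salmon testes DNA and 50 µM zinc acetate, the protein was incubated for 1 h at 25 °C with a custom Agilent array that had been primer-extended with Cy5-dUTP and blocked with 2% BSA. After washing, the array was read on an Axon 4000B scanner. The binding signal is per-feature fluorescence intensity in arbitrary units.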

| Sequence | binding signal |
| --- | --- |
| CCTCCCTCTCGCTTACGAACTCCGCTACCAACCGCTTCCTCGGAGTCACCTAGTGCAG | 8690 fluorescence intensity (a.u.) |
| ACACCACCTCACACTTGCTCACCTAGACCATGTTCCTACTCGGAGTCACCTAGTGCAG | 10700 fluorescence intensity (a.u.) |
| GCCAGCCTCCTCCGCAGTCCGCACCCGCCGCCCGGCCTGACGGAGTCACCTAGTGCAG | 8630 fluorescence intensity (a.u.) |
| CGCGTCTCCATCCATCCATCCACCGCAATGACATTAACATCGGAGTCACCTAGTGCAG | 9440 fluorescence intensity (a.u.) |
| TCTCTCTCCTGTTGACCACCTGCAGATCGCCCGCGCGATGCGGAGTCACCTAGTGCAG | 8160 fluorescence intensity (a.u.) |
| TCTGCATCACGGCCCTTATTCCCGTTGGGCATATCTTTTACGGAGTCACCTAGTGCAG | 11500 fluorescence intensity (a.u.) |
| GCTCGATTCTTCGCCTCCTCCGACGCCCCATCGTCGCGCCCGGAGTCACCTAGTGCAG | 8130 fluorescence intensity (a.u.) |
| CCTCAAACACACTCTAATTTATATTTCACATGTATTTTACCGGAGTCACCTAGTGCAG | 9130 fluorescence intensity (a.u.) |
| ATCAAGCTTTCCATTCTATTTCATTTGTACTCCACCTGTTCGGAGTCACCTAGTGCAG | 11500 fluorescence intensity (a.u.) |
| CCTCGCCAGTTCTGTTCAGCCGCAGATCTCCATCCCGCCACGGAGTCACCTAGTGCAG | 8650 fluorescence intensity (a.u.) |
| CTAGTCCCGTCGTCCGTGACCGTGTGCCTTTGCCTTTCCGCGGAGTCACCTAGTGCAG | 8330 fluorescence intensity (a.u.) |
| TATATATATATATATATATATATATATATATGGTGGTGTTCGGAGTCACCTAGTGCAG | 20500 fluorescence intensity (a.u.) |
| TGTAAGTGTCTACGTTTGTACCGTGTCTTTTTTCTAAAAACGGAGTCACCTAGTGCAG | 10300 fluorescence intensity (a.u.) |
| CCGTACCACCCCAAGATATTTCACGATATTTTCACGCATACGGAGTCACCTAGTGCAG | 8570 fluorescence intensity (a.u.) |
| ATATACTGCTCCATCTCGTCGCTCGTCTCTCGCGTTAACCCGGAGTCACCTAGTGCAG | 8310 fluorescence intensity (a.u.) |
| CGTCGTGGTCAGAATAAAGTCAAATAATAGCTTTGATTTTCGGAGTCACCTAGTGCAG | 9080 fluorescence intensity (a.u.) |
| CTGGTCGCGTTTGGGATCGCCTCTCAATCTCTCATGTTAGCGGAGTCACCTAGTGCAG | 8620 fluorescence intensity (a.u.) |
| TTTATAAGTTGAGAGATGTCATATGTCTGATTTTCCGGTTCGGAGTCACCTAGTGCAG | 8570 fluorescence intensity (a.u.) |
| CTAGATATCCCTTGTTTGTGTGTATGATGTATGCACTCCACGGAGTCACCTAGTGCAG | 8980 fluorescence intensity (a.u.) |
| CCTATTATATCTTACTTGTTTGACCCTATTATGTCATACCCGGAGTCACCTAGTGCAG | 11800 fluorescence intensity (a.u.) |
| GTGCTTATTTGATGTGGCATTTGGGCCTTGGTTTAACCGTCGGAGTCACCTAGTGCAG | 8400 fluorescence intensity (a.u.) |
| AGCGCTGCACAAAATTTGCTCTGTTTCCTCTGTTCTGCGACGGAGTCACCTAGTGCAG | 8140 fluorescence intensity (a.u.) |
| GCATTTTTAAGCGTGGCGTGATCCGTGTTCTGTTCTTCTTCGGAGTCACCTAGTGCAG | 10700 fluorescence intensity (a.u.) |
| CACTAAAATTAGAGGTATCTTTTTCTTCCAGTTTAATGTACGGAGTCACCTAGTGCAG | 9510 fluorescence intensity (a.u.) |
| GCAATATGCTATATGTGTGGTAGATATTTTTGTTGTCTTTCGGAGTCACCTAGTGCAG | 10600 fluorescence intensity (a.u.) |
| ATAGATGGCACTCGCGCCTCGCCTCTCTGCTTCCGCGCCCCGGAGTCACCTAGTGCAG | 11500 fluorescence intensity (a.u.) |
| AACGTTAGACAAAAAGTCAACGGCGTCATACATTAAATACCGGAGTCACCTAGTGCAG | 9060 fluorescence intensity (a.u.) |

| Sequence | binding signal |
| --- | --- |
| GAGCCACGATCGCCCTCTACTTTCTGCATTCCTCAATCTTCGGAGTCACCTAGTGCAG | 11400 fluorescence intensity (a.u.) |
| ATGGTTCTTTTTGCACAGCTCTAGATTCACTATGTTTTGTCGGAGTCACCTAGTGCAG | 8750 fluorescence intensity (a.u.) |
| AGGTGAGGTGGTCGTTTTTCTCGTTATCCAAACTAGTATTCGGAGTCACCTAGTGCAG | 11500 fluorescence intensity (a.u.) |
| TATTTGTTTTTGGTCAGTTCGTGTATGATGTGATCACGACCGGAGTCACCTAGTGCAG | 8570 fluorescence intensity (a.u.) |
| ACGCCATCGCGTCGCGTCATTCTTCCAATCGAGAACTCTTCGGAGTCACCTAGTGCAG | 10400 fluorescence intensity (a.u.) |
| CCGGGTGGAAAGCCATTATTATTGACTTGTTCCGTTCTTCCGGAGTCACCTAGTGCAG | 9780 fluorescence intensity (a.u.) |
| ATTGTTCGTCGAACTTTATCATATTATTAATCATCATATACGGAGTCACCTAGTGCAG | 8960 fluorescence intensity (a.u.) |
| TACATTTTTTCTCTAACATATCATCCCTATTCCCCTAAAACGGAGTCACCTAGTGCAG | 8540 fluorescence intensity (a.u.) |
| GTGGAACTAAACACACCCTCACTACTTCCTCTATTATCGACGGAGTCACCTAGTGCAG | 8430 fluorescence intensity (a.u.) |
| CTCTCCCATTCCGGTTCATGAACTTGCACTTATTCACTGCCGGAGTCACCTAGTGCAG | 8600 fluorescence intensity (a.u.) |
| CCACAGCCACCACGATTTTATATACACATGAGCTTATCATCGGAGTCACCTAGTGCAG | 8120 fluorescence intensity (a.u.) |
| GCCTCTTCCGCCGCATCGCGCTCTACGGCTTCGACCCGCCCGGAGTCACCTAGTGCAG | 10100 fluorescence intensity (a.u.) |
| AGCCCAACATCTCGCATCCCCTGGCCGCCGCCACGAACATCGGAGTCACCTAGTGCAG | 10600 fluorescence intensity (a.u.) |
| GGTGATGCTTATTTATTCTCCTGTTTTATAGGGTTTTAACCGGAGTCACCTAGTGCAG | 8100 fluorescence intensity (a.u.) |
| AGGTGCTATTTCAGCATCCTATGCCATGTCATGTTGAATTCGGAGTCACCTAGTGCAG | 10200 fluorescence intensity (a.u.) |
| GGGATAAAATTGCCACGTAAGCGCCACCTTAACACTATGTCGGAGTCACCTAGTGCAG | 8360 fluorescence intensity (a.u.) |
| CCTCTAGTAGCAGTGGTTAGCACTTAGCTCTCGCCTAATGCGGAGTCACCTAGTGCAG | 8180 fluorescence intensity (a.u.) |
| CCACCCGCCGCCGCCGTCGCCGCCCTTCGCCGCCGCCATGCGGAGTCACCTAGTGCAG | 8690 fluorescence intensity (a.u.) |
| CTACATACACCCGTCCGAGTCATACGCGAGACCGCCCTCGCGGAGTCACCTAGTGCAG | 8520 fluorescence intensity (a.u.) |
| GCAAATACTAGGTGCCCCTGATCACGTTCCACGAATTCCACGGAGTCACCTAGTGCAG | 8110 fluorescence intensity (a.u.) |
| GCGACCATAAGAGACTCCCGCTTCCGCCAACCGCCCACCACGGAGTCACCTAGTGCAG | 9330 fluorescence intensity (a.u.) |
| CAGTTGTCTCACCTAACCAGTGGTATTCCCTGTCCCCAACCGGAGTCACCTAGTGCAG | 8820 fluorescence intensity (a.u.) |
| GGGTTTTGATTTTTTTTAAGATATCTTTTTTTACTTTTATCGGAGTCACCTAGTGCAG | 11500 fluorescence intensity (a.u.) |
| TTTGGTAAGATTTGAACGGTTGGTTGTATAGGTCATTGACCGGAGTCACCTAGTGCAG | 16900 fluorescence intensity (a.u.) |
| CAATAAACTTATTACTATCGCCCGGGTTTCTGCTTAGTTCCGGAGTCACCTAGTGCAG | 9320 fluorescence intensity (a.u.) |
| TATTCTCGCGATTACTGTCAGCTAATGATGGATCAATGTACGGAGTCACCTAGTGCAG | 8040 fluorescence intensity (a.u.) |
| TTTTTGGGTTGGGTTGGGGACGCGCTGTTTCGACGTGGGGCGGAGTCACCTAGTGCAG | 19000 fluorescence intensity (a.u.) |

Quoted at random: three records from the list

| Sequence | binding signal |
| --- | --- |
| GAGCCACGATCGCCCTCTACTTTCTGCATTCCTCAATCTTCGGAGTCACCTAGTGCAG | 11400 fluorescence intensity (a.u.) |
| TATTCTCGCGATTACTGTCAGCTAATGATGGATCAATGTACGGAGTCACCTAGTGCAG | 8040 fluorescence intensity (a.u.) |
| GCAAATACTAGGTGCCCCTGATCACGTTCCACGAATTCCACGGAGTCACCTAGTGCAG | 8110 fluorescence intensity (a.u.) |
